The other results are listed elsewhere or left out.
biological target: T1, OsSMF1 (Oryza sativa, UniProt Q6ZLB0 1-436); experiment: protein-binding microarray (RPBM); PBS, 2% BSA, 51.3 ng/ul salmon testes DNA, 50 uM zinc acetate, 200 nM TF, 25 C, 1 h; high values mean tight binding; settings: protein: recombinant; tags: N-terminal polyhistidine and DsRed monomer fusion (pET32a); chain copies: 2; label: CyDye5-dUTP incorporated in the synthesized complementary strand; 3' TTTTT single-stranded linker to array surface; dsDNA, one strand shown
T1 sequence: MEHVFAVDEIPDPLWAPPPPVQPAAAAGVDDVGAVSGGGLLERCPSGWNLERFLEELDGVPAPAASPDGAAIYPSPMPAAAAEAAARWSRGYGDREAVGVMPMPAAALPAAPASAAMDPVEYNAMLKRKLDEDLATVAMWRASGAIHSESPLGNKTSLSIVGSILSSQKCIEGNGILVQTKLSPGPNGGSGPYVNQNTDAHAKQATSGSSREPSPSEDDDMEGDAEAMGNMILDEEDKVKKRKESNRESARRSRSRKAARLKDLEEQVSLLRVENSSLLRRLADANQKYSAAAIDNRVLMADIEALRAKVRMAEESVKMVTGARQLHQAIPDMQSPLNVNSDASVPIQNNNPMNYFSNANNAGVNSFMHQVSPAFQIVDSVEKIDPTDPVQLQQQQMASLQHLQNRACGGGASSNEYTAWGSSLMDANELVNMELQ
Method in brief: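 In PBS with 2% BSA, salmon testes DNA and 50 µM zinc acetate, 200 nM protein was incubated on a custom Agilent array at 25 °C for 1 h and then washed off. The array had been made double-stranded by primer extension with Cy5-dUTP and blocked with 2% BSA. The proteins were transcription factors fused N-terminally to polyhistidine and DsRed, expressed in E. coli BL21-CodonPlus and purified on Ni–NTA. The binding signal is per-feature fluorescence intensity (arbitrary units) from an Axon 4000B scanner.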

First: TCTGATATGGCATTGACGTGACACTTACGTGGCAATTCGACGGAGTCACCTAGTGCAG
Second: GCTCCGGCTCCCGACGACGCCGAACCAGGTCACCTTCTTCCGGAGTCACCTAGTGCAG
The binding signal of the first is higher: 12500 fluorescence intensity (a.u.) for the first, 3150 fluorescence intensity (a.u.) for the second.

First: GACCTTTGGGTAGGGGTGGGGATGGGGCGAAATTACTAAACGGAGTCACCTAGTGCAG
Second: GTTCAAACTTTCCGAGTCAATCGGGAGGCGGAAGTACCTTCGGAGTCACCTAGTGCAG
The binding signal of the first is higher: 5610 fluorescence intensity (a.u.) for the first, 3270 fluorescence intensity (a.u.) for the second.

First: GGCATCTTCTCAAGGACAGGTGTATTGACAACCTAACAAACGGAGTCACCTAGTGCAG
Second: CCACCGGTGACACCAGCATCATCGTCGGTTTTCTCTCCCTCGGAGTCACCTAGTGCAG
The binding signal of the first is lower: 3320 fluorescence intensity (a.u.) for the first, 3590 fluorescence intensity (a.u.) for the second.

Compared with “GAATTGGACATTTCTCGTAGGTGGCAATCGTAGTCCTAGGCGGAGTCACCTAGTGCAG”, “GACGATTTATAGGCGCGCCACGCATGGCGAGTTGGTCGCTCGGAGTCACCTAGTGCAG” is lower in binding signal: 6280 fluorescence intensity (a.u.) for the first, 5860 fluorescence intensity (a.u.) for the second.

Going from “GTGCAGTAGCTTCGCAGCGTCACCCCAACCCAGCGCGGGTCGGAGTCACCTAGTGCAG” to “ACGTTGCATTCTGTATGACACGTGTCTAGTCCTAATCTCACGGAGTCACCTAGTGCAG”, the binding signal rises from 4100 fluorescence intensity (a.u.) to 15800 fluorescence intensity (a.u.).

Compared with “GTCTGGTCGACCGCGAGTAGACCGCCCGTCGCCATTCTCCCGGAGTCACCTAGTGCAG”, “GCTTCTCCCCGACACGCTCCACCGCCTCCGCCGCCTAGATCGGAGTCACCTAGTGCAG” is higher in binding signal: 3290 fluorescence intensity (a.u.) for the first, 3350 fluorescence intensity (a.u.) for the second.

First: TTTTGTGCAATCAGAACCTGTCAGATGAAGCTGTTGTTGGCGGAGTCACCTAGTGCAG
Second: GCACAGCAAAGTGTGACGGGGCAGCTACCTTGCACAGGTCCGGAGTCACCTAGTGCAG
The binding signal of the first is lower: 3160 fluorescence intensity (a.u.) for the first, 6850 fluorescence intensity (a.u.) for the second.

Going from “TTTCATACACATACGTATTACATATTGCATATACCTATTTCGGAGTCACCTAGTGCAG” to “GGGAATAACAATGGGAACGTCACCCCTTCCTGTACGGTTTCGGAGTCACCTAGTGCAG”, the binding signal rises from 3670 fluorescence intensity (a.u.) to 5340 fluorescence intensity (a.u.).

Going from “CAATTCTAAGAATGAACCTGTACACACGTCATCTGGGAAGCGGAGTCACCTAGTGCAG” to “ACATACAGACACAGAAATACATAACAGAATAACCCAGTAGCGGAGTCACCTAGTGCAG”, the binding signal rises from 11300 fluorescence intensity (a.u.) to 11800 fluorescence intensity (a.u.).

Compared with “GTGACGCGTACAGGTCAGTGAGTCACTCCCTGACAGGTGGCGGAGTCACCTAGTGCAG”, “GCCAAGCAAACAGGGTGTAGAAAACTAGAAACCCTCGCAACGGAGTCACCTAGTGCAG” is higher in binding signal: 6880 fluorescence intensity (a.u.) for the first, 14200 fluorescence intensity (a.u.) for the second.

Compared with “TGGAATCGAAATGGGGATCGATTAACTCGCTAGCGGCTAGCGGAGTCACCTAGTGCAG”, “TCCGTCCTCGTCACCGCCGCCACCGCCGCCCCACCGCCAGCGGAGTCACCTAGTGCAG” is lower in binding signal: 30700 fluorescence intensity (a.u.) for the first, 8360 fluorescence intensity (a.u.) for the second.

First: CTCTCCCGCCTCGCCCGTCGACGCCCGCGCCACGTGCAGCCGGAGTCACCTAGTGCAG
Second: TGCCGTGTGTGTCCAGCTCGCGCGTTGGCCTCTCGCTGTCCGGAGTCACCTAGTGCAG
The binding signal of the first is higher: 6190 fluorescence intensity (a.u.) for the first, 3650 fluorescence intensity (a.u.) for the second.

First: GTAGCAGAGCGGCGACGGGAACTCTAGCCTCCCAAGCAGCCGGAGTCACCTAGTGCAG
Second: CATCAATTTCAAACCTCGAGTCATGGTTTTGCAAAGAAATCGGAGTCACCTAGTGCAG
The binding signal of the first is higher: 3530 fluorescence intensity (a.u.) for the first, 3230 fluorescence intensity (a.u.) for the second.

Compared with “GTAACGTACCCATCAACAATGTTGATCCATGATGACTTCACGGAGTCACCTAGTGCAG”, “ATAAAAGAATCCTCCTGAATACCACGTGGCAATGAAATCACGGAGTCACCTAGTGCAG” is higher in binding signal: 3180 fluorescence intensity (a.u.) for the first, 8250 fluorescence intensity (a.u.) for the second.

First: GCGTGCGCACACGTGCCACCGCCACCGGCGTCCAGCCGGACGGAGTCACCTAGTGCAG
Second: TTTAGGCAAGCTATGAAGATTTTGTGAGTTAGTGAGTGTGCGGAGTCACCTAGTGCAG
The binding signal of the first is lower: 3400 fluorescence intensity (a.u.) for the first, 32300 fluorescence intensity (a.u.) for the second.

First: GCTTATCGATAAACTCAGTGTATTTGCATTCAAATTTTGACGGAGTCACCTAGTGCAG
Second: TCCATGTTCCGATCCCTCCACCTCACGCAGCTCATGCATTCGGAGTCACCTAGTGCAG
The binding signal of the first is lower: 3660 fluorescence intensity (a.u.) for the first, 5740 fluorescence intensity (a.u.) for the second.

Compared with “AATTCATACAATAGTTGCTTACTATATTATTAATACCTTGCGGAGTCACCTAGTGCAG”, “TGCGGTATCCTTGTTATCGTCATCACTCCATCACCCTTATCGGAGTCACCTAGTGCAG” is higher in binding signal: 3710 fluorescence intensity (a.u.) for the first, 6150 fluorescence intensity (a.u.) for the second.

Compared with “CTGCGTGAACAGAGATGATCCGTCTCATCCTGTCATCCACCGGAGTCACCTAGTGCAG”, “ATCATGACATAATTAGACTCAAAAGATTCGTCTTGTGAATCGGAGTCACCTAGTGCAG” is lower in binding signal: 4660 fluorescence intensity (a.u.) for the first, 3800 fluorescence intensity (a.u.) for the second.

Going from “GGTAGTCGGCGGAGGTGGCGAGGTCGAGGGAGGGGAAGATCGGAGTCACCTAGTGCAG” to “TACATCTCGACACACCTACGTGGATGGATATACTCGCTCTCGGAGTCACCTAGTGCAG”, the binding signal falls from 3570 fluorescence intensity (a.u.) to 3200 fluorescence intensity (a.u.).

First: ATAGTTAAATTTTCACTTTTGAGTCATCTTTCAACTAATCCGGAGTCACCTAGTGCAG
Second: GAACTGGTACACCACTGTAGTCAAATAAATGTGGGCCTATCGGAGTCACCTAGTGCAG
The binding signal of the first is lower: 4800 fluorescence intensity (a.u.) for the first, 32400 fluorescence intensity (a.u.) for the second.

Going from “AATTACTCAAGTGTGTGTGCTGAATTGCAAACATCCTCTACGGAGTCACCTAGTGCAG” to “CCGTGCTCGCCGCCGTCAACTTGGGCTACTTCCTTTTGTGCGGAGTCACCTAGTGCAG”, the binding signal falls from 30200 fluorescence intensity (a.u.) to 3720 fluorescence intensity (a.u.).

Reference: article PMC7819943, “Rice protein-binding microarrays: a tool to detect cis-acting elements near promoter regions in rice”
